# Measured values as given in PMC5713326.
# By UniProt entry, the sequences of proteins in these tests, tags left out.
# UniProt O60260: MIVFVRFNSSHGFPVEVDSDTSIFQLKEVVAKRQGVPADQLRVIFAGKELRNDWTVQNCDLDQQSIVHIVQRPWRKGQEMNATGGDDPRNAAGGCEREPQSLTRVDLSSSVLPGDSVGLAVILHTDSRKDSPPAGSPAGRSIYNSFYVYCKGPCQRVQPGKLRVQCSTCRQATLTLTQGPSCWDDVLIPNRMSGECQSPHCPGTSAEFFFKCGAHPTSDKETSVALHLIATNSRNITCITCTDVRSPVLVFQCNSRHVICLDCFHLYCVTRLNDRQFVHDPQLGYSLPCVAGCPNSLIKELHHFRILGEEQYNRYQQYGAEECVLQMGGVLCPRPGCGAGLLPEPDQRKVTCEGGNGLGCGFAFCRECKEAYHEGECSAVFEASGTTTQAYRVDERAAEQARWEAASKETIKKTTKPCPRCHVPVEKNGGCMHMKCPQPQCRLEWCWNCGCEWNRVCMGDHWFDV
# UniProt O88597: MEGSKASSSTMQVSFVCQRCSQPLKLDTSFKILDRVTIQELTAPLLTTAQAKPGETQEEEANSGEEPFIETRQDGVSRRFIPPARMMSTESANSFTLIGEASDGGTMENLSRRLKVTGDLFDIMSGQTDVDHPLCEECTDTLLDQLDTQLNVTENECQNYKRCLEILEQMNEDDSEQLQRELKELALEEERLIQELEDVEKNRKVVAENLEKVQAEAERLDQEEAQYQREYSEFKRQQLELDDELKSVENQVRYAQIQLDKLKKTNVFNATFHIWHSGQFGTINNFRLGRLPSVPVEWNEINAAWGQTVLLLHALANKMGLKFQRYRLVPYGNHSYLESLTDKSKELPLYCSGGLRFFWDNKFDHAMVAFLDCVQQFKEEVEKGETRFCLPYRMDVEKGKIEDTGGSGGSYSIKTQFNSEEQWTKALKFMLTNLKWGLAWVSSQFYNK
# UniProt Q14457: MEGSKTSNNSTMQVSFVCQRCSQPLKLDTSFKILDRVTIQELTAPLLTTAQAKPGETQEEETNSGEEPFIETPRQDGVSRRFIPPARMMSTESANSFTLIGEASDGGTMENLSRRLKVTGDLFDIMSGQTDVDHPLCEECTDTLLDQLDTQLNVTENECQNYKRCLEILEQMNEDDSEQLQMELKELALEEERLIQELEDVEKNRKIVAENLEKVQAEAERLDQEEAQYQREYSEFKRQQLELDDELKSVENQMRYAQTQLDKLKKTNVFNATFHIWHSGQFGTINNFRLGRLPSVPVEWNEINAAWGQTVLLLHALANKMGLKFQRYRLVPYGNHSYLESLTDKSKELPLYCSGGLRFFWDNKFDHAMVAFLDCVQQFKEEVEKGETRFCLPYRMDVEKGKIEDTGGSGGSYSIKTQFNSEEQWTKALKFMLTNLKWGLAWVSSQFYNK
# No constants are given. Whether binding was seen depends on the method and setting. Binding seen in cells or lysates may run through a third protein. Some results given as binding are weak or reduced against the parent protein; the word gives no strength.
# What was measured:
# [1] = target: T1, PARK2 (Parkinson disease (autosomal recessive, juvenile) 2), mouse, endogenous in NIH/3T3 fibroblasts (mouse (endogenous in NIH/3T3)) (UniProt Q9WVS6); test: co-IP; endogenous proteins in fibroblast lysates (NIH/3T3 and MRC-5); IP lysis buffer 50 mM Tris, 1 mM EDTA, 0.5% NP-40, 150 mM NaCl, 10% glycerol, 1 mM PMSF; IP overnight at 4 °C with anti-PARK2 or anti-BECN1 monoclonal antibody and protein A/G agarose beads, control IgG as negative control; Western blot
# T1 sequence: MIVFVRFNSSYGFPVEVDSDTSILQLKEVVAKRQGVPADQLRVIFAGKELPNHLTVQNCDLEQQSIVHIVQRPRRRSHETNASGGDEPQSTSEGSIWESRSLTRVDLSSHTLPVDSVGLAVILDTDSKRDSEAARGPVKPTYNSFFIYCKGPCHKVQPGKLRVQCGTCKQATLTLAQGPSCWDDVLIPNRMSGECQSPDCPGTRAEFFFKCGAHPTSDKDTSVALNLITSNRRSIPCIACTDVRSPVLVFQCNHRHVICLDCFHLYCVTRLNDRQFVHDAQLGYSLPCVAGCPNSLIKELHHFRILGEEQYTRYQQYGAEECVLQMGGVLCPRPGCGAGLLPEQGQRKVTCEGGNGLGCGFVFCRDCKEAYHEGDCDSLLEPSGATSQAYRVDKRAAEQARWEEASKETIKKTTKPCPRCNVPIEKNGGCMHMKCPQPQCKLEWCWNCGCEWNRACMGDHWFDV
# [2] = target: PARK2 (Parkinson disease (autosomal recessive, juvenile) 2), human, endogenous in MRC-5 fibroblasts (human (endogenous in MRC-5)) (UniProt O60260); test: as above
binding [1],binding [2],Substance
binds,–,"BECN1 (Beclin 1, autophagy-related), mouse, endogenous in NIH/3T3 fibroblasts (from UniProt O88597 1-448)"
–,binds,"BECN1 (Beclin 1, autophagy-related), human, endogenous in MRC-5 fibroblasts (from UniProt Q14457 1-450)"
